# Screening data, single-dose tests

The values are deposited in ChEMBL (CHEMBL3988442, “University of Dundee, Small-Polar-MMV Screening Library” (2021)).

Mtb glucose medium: 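Growth of Mycobacterium tuberculosis over 3 days (7H9 medium with glucose and tyloxapol); the read-out is not stated. Concentration: 500 µM. Higher reads as more growth inhibition (inferred: compounds with an IC50 in retests scored well above the rest). About 18,000 compounds were tested under these conditions; 7.9% (about 1,400) showed 50% or more at least once.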
Mtb cholesterol medium: 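Growth of Mycobacterium tuberculosis over 4 days (cholesterol / DPPC medium with tyloxapol); the read-out is not stated. Tested at 500 µM. Direction is inferred from retests: higher values go with more growth inhibition. Size under these conditions: about 18,000 compounds, about 900 of them at 50% or above in at least one test.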

Results are given as percent effect.
The record does not define 0% and 100%; most values in the screen are far below 50% and negative numbers occur (in some assays of this library far below -100).
Compounds were drawn at random from those tested, without regard to their results.

compound,Mtb glucose medium,Mtb cholesterol medium
CS(=O)(=O)NCc1cnn(-c2ccccc2)c1,14.56,-11.88
Cc1ncncc1C(=O)N1CCN(C)C(=O)C1C(C)C (stereo not shown),0.7365,7.37
CC1=C(c2ccco2)CN(CC(N)=O)CC1,6.978,-6.047
Cc1ccccc1C(=O)NCCCN1CCCC1,6.743,0.4911
CO[C@H]1CNCC1NC(=O)c1ccn(C2CCCC2)n1 (stereo partly shown),2.284,1.766
COc1cccc(CNC(=O)CNC(=O)C2CCC2)c1,22.32,-3.078
C=C(C)COC(=O)c1ccc(-n2cncn2)cc1C,53.45,35.95
O=C(N[C@@H]1COCC[C@H]1O)C1(CO)CC1,2.379,-2.353
NCc1ccc(Cl)cn1,63.47,91.35
CN(Cc1ccccc1)C(CN)C1CC1 (stereo not shown),12.61,31.9
CSCCCN1CCC(C(=O)NC2CC2)CC1,0.1852,12.49
COc1ccc(S(=O)(=O)N2CCCCC2)cc1OC,33.39,1.767
Cc1ccc(C(C)(C)CN(C)C(=O)CCN)cc1,53.78,16.91
CC(C(=O)NC1CC1)N1CCN(C)c2ccccc2C1 (stereo not shown),54.58,25.36
COc1cccc2ccc(CN3CC[C@@H](O)C3)nc12,20.73,-29.08
COc1ccc(Cl)cc1C(=O)N1CCn2cncc2C1,18.07,11.6
CCn1nc(C)c(S(=O)(=O)Nc2cc(Cl)ccn2)c1C,3.009,-2.569
O=C(CSc1nc[nH]n1)NCCCc1ccccc1,26.86,5.525
CCN(CC)c1ncccc1CNC(=O)C1CCOC1 (stereo not shown),1.803,-4.655
CC(=O)NC(C)C(=O)Nc1ccc2c(c1)OCCO2 (stereo not shown),14.76,1.362
O=c1c2ccccc2cnn1CN1CCCC1,63.89,14.28
CC(C)Oc1cc(Br)cc(C(=O)NCCC(N)=O)c1,37.26,15.48
Cc1cc(C(=O)Nc2ccc(C(N)=O)cc2)no1,-16.32,-13.98
CC(C)Cc1cc(C(=O)NC[C@@H]2C[C@H](F)CN2)on1,21.68,16.64
CC(=O)C1CCCN(C)C1 (stereo not shown),-10.93,-23.64
NC1CSc2ccccc21 (stereo not shown),15.93,-6.223
CNCc1cscn1,20.9,15.13
COC(=O)c1cncc(N)n1,-53.81,-3.556
CC(N)(CO)c1ccc(Br)cc1 (stereo not shown),19.74,15.92
CN1CCOC(C(=O)Nc2ncccc2Br)C1 (stereo not shown),-14.45,-6.15
COC(=O)C1Cc2ccccc2N1 (stereo not shown),20,9.599
NCCCNS(=O)(=O)CCc1ccccc1,5.239,-4.925
CSCC(=O)NCC1(CN2CCOCC2)CCCCC1,-1.018,-4.742
NC(=O)CCN1CCC(CNc2ccccn2)C1 (stereo not shown),4.235,3.598
CC(C)CN1CCC(Nc2ccc3nnnn3n2)CC1,-4.77,-6.087
COc1cc2c(nn1)CCN(Cc1cc(C)no1)C2,-8.19,-23.25
CN(C)S(=O)(=O)NC1(C)CCc2ccccc2C1 (stereo not shown),-2.419,-11.79
O=C(CC(F)(F)F)Nc1ccc(N2CCNC2=O)cc1,-1.248,-9.827
Cc1cncc(CN2CCCC(CNS(N)(=O)=O)C2)c1 (stereo not shown),-5.065,1.779
NC1CCN(CC2CCCC2)CC1,23.04,32.28
Cc1ccc(F)c(C(=O)N[C@@H]2CNC[C@H]2O)c1Cl,23.77,51.16
CCn1c(=O)n(CCC(=O)NC(N)=O)c2ccccc21,0.04916,0.8383
CC(=O)c1cc(CN2CCOCC(CO)C2)n(C)c1 (stereo not shown),13.95,3.986
Cn1ccnc1-c1nc2c([nH]1)CC(C)(C)CNC2=O,15.31,4.91
Cc1nnnn1CCC(=O)N1CC[C@H]2CC[C@@H](C1)N2,6.699,4.683
Cc1cc(NC(=O)C(C)N(C)Cc2cc(C)on2)on1 (stereo not shown),23.61,15.58
NC1COCc2ccccc21 (stereo not shown),-7.812,-8.672
Cc1ccc(C(=O)N2CCCC2c2ccc[nH]2)o1 (stereo not shown),23.49,13.6
CC(=O)N1CCCN(Cc2nc(C3CC3)no2)CC1,14.86,-10.53
CN1CCN(CC2CNC2)CC1,-4.858,-2.181
CCc1cccc2c1N(CC(N)=O)CCC2,2.017,-2.053
Cc1n[nH]c(SCC(=O)Nc2ccccn2)n1,5.407,-3.599
CC(N)c1ccc(NC(=O)c2ccncc2)cc1 (stereo not shown),23.33,3.045
CN(C)C(=O)c1ccc2ncnc(N3CCCC3)c2c1,-3.379,-23.08
c1csc(C2CCCNC2)n1 (stereo not shown),2.323,-0.8193
COc1ccc(NC(=O)NCC2CCN(C)C2)cn1 (stereo not shown),16.59,-1.474
CN(C)C(=O)CSCc1ccc(C#N)cc1,28.35,10.76
CNC(=O)c1ccc(Cl)c(S(=O)(=O)N2CCCCC2)c1,53.51,33.97
Cn1cc(N)c(C(=O)NCC2CC2)n1,-4.57,-15.14
O=C(c1ccccc1F)N1C[C@H]2CNC[C@H]2C1,7.28,0.3317
Cc1n[nH]c(C)c1CNc1cc(C2CC(N)C2)ncn1 (stereo not shown),14.29,-4.656
Nc1ncc(-c2ccccc2)o1,18.19,38.22
c1ccc(-c2cc[nH]n2)nc1,14.58,0.2207
N[C@@H]1CCC(=O)N[C@H]1c1ccccc1,25.85,1.871
CCC(OCCO)c1ccccc1 (stereo not shown),6.21,4.693
CC(C#N)CN(C)S(=O)(=O)N1CCCN(CCO)CC1 (stereo not shown),-2.506,-6.882
CC(CN)N(C)C(=O)CCc1ccsc1 (stereo not shown),1.069,-3.512
CCOCCN(C)CC(=O)Nc1cc(C)ccn1,5.761,-13.85
CN(CCO)c1ccc2ccc(F)cc2n1,27.38,8.122
COCCSCC(=O)N1CCOC(C)(C)C1,-7.189,-3.733
Cc1cc(C)c(CNC(=O)CN2CSCC2=O)c(=O)[nH]1,-3.574,-6.001